In the supplement of paper PMC10735217:
Where a name gives a salt, the structure may show the parent alone. This is one part of the list. Repeats in this data set agree poorly, so a single value says little.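 In a drug-repurposing library screen, luminescence reads luciferase driven by eight TEAD-binding elements, stably integrated into human kidney-derived cells. Compounds scoring over five robust Z scores above the plate mean are called hits.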

System: HEK293A TEAD-LUC reporter
Experiment: TEAD-luciferase reporter activity (YAP activation), robust Z score vs plate; higher = stronger YAP/TEAD activation
Conditions: 24 h

SMILES	TEAD-luciferase reporter activity (compound concentration: 200 nM)	TEAD-luciferase reporter activity (compound concentration: 2 uM)	TEAD-luciferase reporter activity (compound concentration: 10 uM)
COC(=O)N[C@H](C(=O)N1CCC[C@H]1c1nc(-c2ccc3c(c2)O[C@@H](c2ccccc2)n2c-3cc3cc(-c4c[nH]c([C@@H]5CCCN5C(=O)[C@@H](NC(=O)OC)C(C)C)n4)ccc32)c[nH]1)C(C)C [Elbasvir]	inactive: 2.83	inactive: -1.54	inactive: -0.641
O=C1Cc2ccccc2C(=C2CCN(CCOCCOCCO)CC2)c2ccsc21 [etolotifen]	inactive: -0.463	inactive: -0.695	inactive: 0.0739
O=C(O)C[C@@H](CCc1c[nH]c2ccccc12)NC(=O)CNC(=O)CCCC1CCNCC1	inactive: 3.1	inactive: -0.268	inactive: 2.09
Nc1nc(N2CCOCC2)nc(-n2ccnc2)n1	inactive: -1.81	inactive: -1.57	inactive: 1.86
COC(=O)c1c(C)cc(OC(=O)c2c(C)cc(O)c(C=O)c2O)c(C)c1O	inactive: -1.1	inactive: -0.367	inactive: 1.97
O=C1CN(S(=O)(=O)c2ccc3cc(Cl)ccc3c2)CC2(CO)OC3(CCNCC3)CN12 (stereo unspecified)	inactive: -1.26	inactive: -1.7	inactive: 2.88
C#C[C@]1(O)CC[C@H]2[C@@H]3CCC4=CC(=O)CC[C@@H]4[C@H]3C(=C)C[C@@]21CC [Etonogestrel]	inactive: -1.47	inactive: -0.771	inactive: -1.41
CCCCc1nc(-c2ccc(OCCCN(CC)CC)cc2)cn1-c1ccc(Oc2ccc(Cl)cc2)cc1 [Azeliragon]	inactive: 0.479	inactive: 0.713	inactive: 3.96
CCOC(=O)c1cc2cc3ccoc3cc2oc1=O [3-Carbethoxypsoralen]	inactive: -0.458	inactive: 1.51	inactive: -0.312
COc1ccc(CNC(=O)c2cc(-c3cncc(C)c3)ncc2-c2nccs2)nc1OC	inactive: -1.26	inactive: -0.325	inactive: 0.125
O=C(Cn1ccnc1)c1ccc2ccccc2c1 [nafimidone]	inactive: 2.99	inactive: -1.49	inactive: -1.48
O=C(O)/C=C\c1ccccc1 [Cinnamic acid]	inactive: -0.191	inactive: -0.742	inactive: 3.22
O=C1N(CCN2CCC(c3noc4cc(F)ccc34)CC2)CCN1c1ccccc1	inactive: -0.894	inactive: -1.67	inactive: -1.31
COc1ccc(CCN(C)CCCC(C#N)(c2ccc(OC)c(OC)c2)C(C)C)cc1OC (stereo unspecified) [verapamil CDT]		inactive: 1.89	
O=C(O)Cn1c(-c2cccc(Cl)c2)nc2ccc(OCCCN3CCCCC3)cc2c1=O	inactive: 1.83	inactive: -1.04	inactive: 2.8
O=C(/C=C/c1ccc(O)c(O)c1)O[C@@H]1C[C@](O)(C(=O)O)C[C@@H](O)[C@H]1O	inactive: -0.089	inactive: 0.42	active: 7.69
CCc1ccccc1CN1CCCCC12Cc1ccccc1CNC2=O (stereo unspecified)	inactive: 1.22		inactive: 1.1
OC[C@H]1O[C@@H](O)[C@H](O)[C@@H](O)[C@@H]1O	inactive: -0.958	inactive: 1.21	inactive: 0.993
C=CCN1C(=O)C(CC(C)C)NC1=S (stereo unspecified)		inactive: -2	

SMILES	TEAD-luciferase reporter activity (compound concentration: 200 nM)	TEAD-luciferase reporter activity (compound concentration: 2 uM)	TEAD-luciferase reporter activity (compound concentration: 10 uM)
C=CCN1C(=O)C(CC(C)C)NC1=S (stereo unspecified) [Albutoin]	inactive: -0.72		inactive: -0.882
CC(O)(P(=O)(O)O)P(=O)(O)O [Etidronic acid]		inactive: 0.225	
CC(O)(P(=O)(O)O)P(=O)(O)O [Etidronate]	inactive: -1.69		inactive: 0.00506
Cc1cc(N2CCC[C@@H](N)C2)c2c(n1)n(C)c(=O)n2Cc1ccccc1C#N [Imigliptin dihydrochloride]	inactive: -1.04	inactive: 4.18	inactive: 1.05
CCOc1ncc(C)c2c1[C@H](c1ccc(C#N)cc1OC)C(C(N)=O)=C(C)N2 [Finere]	inactive: -0.39	inactive: 0.0704	inactive: 4.22
CC(NCCc1ccc(OCC(=O)O)cc1)C(O)c1ccc(O)cc1 (stereo unspecified)	inactive: -1.62	inactive: 0.668	inactive: -0.559
O=C(O)COC/C=C/CN1CCN(C(c2ccc(F)cc2)c2ccc(F)cc2)CC1	inactive: -2.2	inactive: -2	inactive: -1.3
NC(=O)c1cnc2n1CCc1ccccc1C21CCNCC1 [Vapitadine hydrochloride]	inactive: -1.39	inactive: -0.101	inactive: 0.154
CN[C@@H]1CCN(c2cc(NC3(C)CC3)nc(N)n2)C1	inactive: -1.42	inactive: 0.262	inactive: -1.31
Nc1ccc(C(=O)NCC(=O)O)cc1	inactive: -0.567	inactive: 1.79	inactive: 0.383
CCNC(=O)NS(=O)(=O)c1sc(CC(C)C)cc1-c1ccc(Cn2c(-c3ccccc3)nc(OC)c2C=O)cc1	inactive: -1.59	inactive: -0.835	inactive: 0.939
CC(C)(c1ccc(O)cc1)c1ccc(OCc2cccc(COc3ccc(C(=N)N)cc3)c2)cc1	inactive: -1.18	inactive: -0.0107	inactive: 2.24
O=c1[nH]c(=O)n([C@@H]2O[C@H](CO)[C@@H](O)[C@H]2O)cc1F	inactive: -0.219	inactive: -1.09	inactive: 0.887
CSc1cc2c(cc1C(F)(F)F)N(C(=O)Nc1cccnc1)CC2	inactive: 0.228	inactive: -2.05	inactive: -1
CC[C@]12CN3CCc4c([nH]c5ccccc45)[C@@](C(=O)OC)(c4cc5c(cc4OC)N(C)[C@H]4[C@@](O)(C(=O)OC)[C@H](OC(C)=O)[C@]6(CC)C=CCN7CC[C@]54[C@@H]76)C[C@H](C3)[C@H]1O2	inactive: -1.5	inactive: -0.727	inactive: 0.422
COC(=O)N1CC2(CC2)C[C@H](C(=O)NO)[C@H]1C(=O)N1CCN(c2ccccc2)CC1 [Aderbasib]	inactive: 0.362	inactive: 0.636	inactive: 3.08
CN1CCN2c3ccccc3Cn3cccc3C2C1 (stereo unspecified)	inactive: 0.665	inactive: 0.226	inactive: 3.27
COc1cccc(-c2nc(SC)nc3sc(C(=O)NC(C)(C)C)c(N)c23)c1	inactive: -0.518	inactive: 1.6	inactive: -0.921
O=C(O)c1cc(NCCc2ccc(C(F)(F)F)cc2)ccc1O	inactive: 2.31	inactive: -1.35	inactive: 1.42

Looked up above:
In TEAD-luciferase reporter activity (compound concentration: 200 nM), O=C(O)c1cc(NCCc2ccc(C(F)(F)F)cc2)ccc1O reads inactive: 2.31
In TEAD-luciferase reporter activity (compound concentration: 2 uM), CCNC(=O)NS(=O)(=O)c1sc(CC(C)C)cc1-c1ccc(Cn2c(-c3ccccc3)nc(OC)c2C=O)cc1 reads inactive: -0.835
In TEAD-luciferase reporter activity (compound concentration: 200 nM), COc1ccc(CNC(=O)c2cc(-c3cncc(C)c3)ncc2-c2nccs2)nc1OC reads inactive: -1.26

Additional records follow.

SMILES	TEAD-luciferase reporter activity (compound concentration: 200 nM)	TEAD-luciferase reporter activity (compound concentration: 2 uM)	TEAD-luciferase reporter activity (compound concentration: 10 uM)
O=c1c(-c2ccccc2)c1-c1ccccc1 [Diphenylcycloprope]		inactive: -0.853	
O=c1c(-c2ccccc2)c1-c1ccccc1 [diphenylcycloprope]	inactive: -0.442		inactive: 1.28
CC(C)=CCC/C(C)=C/CC/C(C)=C/CSc1ccccc1C(=O)O [salirasib]	inactive: -0.903	inactive: -1.24	inactive: -0.105
CC(C)N1CCN(Cc2cnc(-c3cc(-c4cccc5[nH]ccc45)cc4[nH]ncc34)o2)CC1	inactive: -0.862	inactive: 0.109	inactive: -2.29
Nc1nc(F)nc2c1ncn2[C@@H]1O[C@H](COP(=O)(O)O)[C@@H](O)[C@@H]1O [fludarabine phosphate, EryDel]	inactive: -0.364	inactive: -0.61	inactive: -0.252
CN1C(=O)/C(=C2/C(=O)Nc3ccccc32)c2ccccc21 [Meisoindigo]	inactive: -1.05	inactive: -0.563	inactive: -0.26
CC(C)(C)c1cc(C2CCCCC2)ccc1OC(=O)c1cccnc1	inactive: -2.74	inactive: -0.136	inactive: -0.523
C[C@]12CC[C@H](O)C=C1CC[C@H]1[C@@H]2CC[C@@]2(C)C=CC[C@@H]12 [Aloradine]	inactive: 0.0155	inactive: 2.6	inactive: -0.318
CC/C(=C(/C#N)c1ccc(OCCN(CC)CC)cc1)c1ccc(Cl)cc1	inactive: -1.36	inactive: -0.499	inactive: 1.65
CCCCCOc1ccnc(CSc2nc3ccccc3[nH]2)c1C	inactive: -0.827	inactive: -0.951	inactive: -0.257
COC(=O)Nc1nc2cc(Sc3ccccc3)ccc2[nH]1	inactive: 2.67	inactive: 4.72	inactive: 3.04
O=C([O-])CCCCCCCNC(=O)c1ccccc1O	inactive: -0.143	inactive: -0.909	inactive: -0.687
CCN(CC)CCOC(=O)C(c1ccccc1)C1CCCCC1 (stereo unspecified)	inactive: -0.578	inactive: 3.91	inactive: 1.93
CN(C)CCC=C1c2ccccc2COc2ccc(CC(=O)O)cc21 [olopatadine]	inactive: -0.607	inactive: 0.858	inactive: 0.401
CS(=O)(=O)c1ccc(Oc2cc(F)cc(C#N)c2)c2c1[C@H](O)C(F)(F)C2	inactive: 0.00636	inactive: -0.251	inactive: 1.99
O=C(/C=C/c1ccc(O)c2c1[C@H](C(=O)OC(Cc1ccc(O)c(O)c1)C(=O)O)C(c1ccc(O)c(O)c1)O2)O[C@@H](Cc1ccc(O)c(O)c1)C(=O)O (stereo partly specified) [Salvianolic acid B]	inactive: -3.48	inactive: -1.61	inactive: -0.366
CCCOc1ccc2[nH]c(NC(=O)OC)nc2c1 [Oxibendazole]	inactive: 4.52	inactive: 1.54	inactive: 1.82
CCCC(NC(C)C(=O)N1C(C(=O)O)CC2CCCCC21)C(=O)O (stereo unspecified) [Perindoprilat]	inactive: 2.33	inactive: -1.47	inactive: -1.39
